In all, about 33,000 sequences were measured (“E-score (-0.5 to 0.5)”: median about -0.016, highest 2% from about 0.3 on). Some of the results follow.
Target: T1, Yer184c (UniProt P39961)
T1 sequence: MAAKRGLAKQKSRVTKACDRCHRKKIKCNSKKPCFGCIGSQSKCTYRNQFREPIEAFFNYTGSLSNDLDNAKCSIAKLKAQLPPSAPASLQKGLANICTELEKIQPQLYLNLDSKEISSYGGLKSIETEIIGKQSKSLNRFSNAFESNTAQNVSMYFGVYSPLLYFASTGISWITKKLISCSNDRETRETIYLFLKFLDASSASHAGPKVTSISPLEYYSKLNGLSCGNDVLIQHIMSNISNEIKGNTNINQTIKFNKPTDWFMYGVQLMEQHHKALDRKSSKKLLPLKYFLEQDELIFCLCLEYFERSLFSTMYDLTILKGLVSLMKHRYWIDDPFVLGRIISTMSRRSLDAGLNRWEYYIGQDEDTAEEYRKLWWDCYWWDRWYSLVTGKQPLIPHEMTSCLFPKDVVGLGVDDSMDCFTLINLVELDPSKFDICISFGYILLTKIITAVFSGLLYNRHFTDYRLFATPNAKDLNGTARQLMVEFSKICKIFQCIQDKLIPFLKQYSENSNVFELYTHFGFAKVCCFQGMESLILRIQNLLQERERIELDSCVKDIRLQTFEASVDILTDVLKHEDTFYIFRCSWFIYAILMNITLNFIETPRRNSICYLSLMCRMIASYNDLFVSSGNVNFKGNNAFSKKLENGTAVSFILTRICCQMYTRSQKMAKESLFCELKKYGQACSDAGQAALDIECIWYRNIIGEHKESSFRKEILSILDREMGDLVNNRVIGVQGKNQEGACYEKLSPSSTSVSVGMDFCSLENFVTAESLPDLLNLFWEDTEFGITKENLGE
Test: PBM E-score (8-mer binding enrichment) (E-score (-0.5 to 0.5)); higher = stronger / more preferred TF binding
Settings: protein concentration: 100 nM; construct: GST-full length
Procedure, shortened: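 PURExpress in vitro transcription/translation supplied GST-tagged yeast transcription factors, either full-length or DNA-binding domain. Applied at about 100-200 nM to universal all-10-mer Agilent arrays double-stranded by primer extension, the bound protein was detected with fluorescent anti-GST. E-scores, modified Wilcoxon-Mann-Whitney statistics, were given by the Universal PBM Analysis Suite to ungapped eight-base words pooled with their reverse complements after masliner normalisation.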

Row | Sequence | PBM E-score
1 | CGGATACA | 0.223
2 | AATTGACG | -0.0892
3 | ACGATTAC | -0.071
4 | GATTAGGC | 0.0479
5 | CATGGCCA | -0.273
6 | CCAGAGCA | 0.00451
7 | AGATCCTG | 0.00801
8 | CAGTACCA | -0.122
9 | CAGTGGAA | -0.114
10 | GTTACGCA | -0.193
11 | CCGCATCA | -0.00437
12 | ATACGCTG | -0.0886
13 | ATTCTATA | 0.136
14 | TCCTATCA | -0.135
15 | CATGGGCG | -0.0541
16 | CTAAGGTC | -0.265
17 | GGACGAGA | 0.0132
18 | CTACAAGC | -0.0551
19 | GGTAGCGA | -0.0503
20 | CTCGTTCC | -0.0129
21 | ACAAAATG | 0.102
22 | CGAGACCA | 0.0505
23 | CGTCACAA | 0.103
24 | ATTCGTAA | 0.111
25 | GATACCGC | 0.0794

Row | Sequence | PBM E-score
26 | ATCATGTA | 0.00394
27 | CAGTTAGA | -0.0352
28 | GCCTGAGA | 0.0005
29 | AAGAACTC | 0.0694
30 | ATGTCATG | 0.128
31 | GCAAGCAC | -0.278
32 | TATACACA | 0.0954
33 | CATATGTA | -0.123
34 | GACGTAGC | -0.225
35 | ACGCTACG | -0.104
36 | CTGTCCTC | -0.197
37 | GTCAGGTA | -0.0961
38 | ATAGAGCA | 0.0523
39 | GTATGTGA | 0.0229
40 | CGTAAACA | 0.145
41 | CTTCATTA | 0.17
42 | AGCTGACG | -0.142
43 | GGACCAAC | -0.0189
44 | TAGCTTCA | -0.132
45 | CGACATGA | 0.0941
46 | TAGTGATA | -0.199
47 | CTACTTCC | 0.156
48 | AAATGGGC | -0.138
49 | CGAGGTAC | -0.0351
50 | ATATTCTA | 0.205

Row | Sequence | PBM E-score
51 | TGTATACA | 0.243
52 | GTGCATTA | 0.0431
53 | GCAGCCTA | -0.0954
54 | ATTTAAGC | 0.178
55 | CGAATCCA | 0.00735
56 | TCCCTTCA | -0.0303
57 | ACACCCAG | -0.22
58 | AATAAGGG | -0.104
59 | CTATCCAA | -0.206
60 | AACATCGG | 0.134
61 | CACATCGG | -0.0256
62 | GGCACCTA | -0.115
63 | AGCATCTA | -0.167
64 | AGAGAATA | 0.0273
65 | AAACATTG | -0.0276
66 | AGTCGAGC | -0.266
67 | AGTAATTC | 0.243
68 | AGCGCATG | -0.211
69 | CATTAGCG | -0.128
70 | AGCAGAAA | 0.152
71 | ATGCTCAG | -0.0136
72 | AGAGATGA | -0.00076
73 | GTTCATGA | 0.171
74 | CTCAATAC | 0.0593
75 | ATGAAGCA | -0.0497

Row | Sequence | PBM E-score
76 | ACTTTGAC | 0.151
77 | GATTCCTA | 0.00947
78 | ACTAGAAA | -0.00189
79 | AACCCAAC | -0.102
80 | TAGTCCCA | -0.186
81 | GGAGATGA | 0.0659
82 | AAACGAAC | 0.198
83 | CGCTACCA | -0.157
84 | TACGAGCA | -0.156
85 | CAACACCA | -0.113
86 | GGTGATGA | -0.0976
87 | GGTCAACA | 0.0649
88 | CATCAACC | -0.00043
89 | CATTTTGC | 0.0771
90 | AGGGATAC | -0.124
91 | AACCAGCG | 0.0254
92 | GTTGCTGA | 0.0495
93 | CCTTTTCC | -0.0798
94 | ACAAACAC | 0.17
95 | CTCGAGAA | 0.0249
96 | GTAAAACA | -0.098
97 | AGTAGTTA | -0.0726
98 | AGTCGGAT | 0.198
99 | ATGCTAGG | -0.151
100 | CGCTATGA | -0.0231

Row | Sequence | PBM E-score
101 | GCTGGTAA | -0.00124
102 | CGGCATCA | 0.283
103 | AAGTCATT | -0.189
104 | CAATGAGC | -0.0433
105 | TATAAAAA | 0.373
106 | AGAGGTAG | -0.213
107 | CGGCGTCC | 0.205
108 | CGAGCCCA | -0.128
109 | ACCGCTAC | -0.101
110 | AGTCGCCC | -0.265
111 | TGATCCAA | 0.0844
112 | ATTGCGTA | -0.0982
113 | AAGTGGCC | -0.219
114 | AAGTACTA | 0.125
115 | ATAGCTAT | 0.229
116 | CATCCGCG | 0.0676
117 | AATGACGT | -0.101
118 | CGTAATGA | -0.0865
119 | ATAAGGAT | 0.0597
120 | ACAGCTTA | -0.107
121 | CTTGAAGA | -0.0387
122 | ACTATACA | 0.0199
123 | CGAGGGTA | -0.14
124 | TAATATGA | 0.131
125 | AGACCGTG | -0.0237

Row | Sequence | PBM E-score
126 | ACGTGAGC | -0.186
127 | AGCTCGCC | -0.0877
128 | GCATCACA | 0.093
129 | GTCTTGCA | 0.0873
130 | AATCTACT | 0.0967
131 | GCATCGAA | -0.0557
132 | GCCTACAC | -0.202
133 | CTGCGGGA | -0.0974
134 | ATTCGTGG | -0.0833
135 | ACGCGTCA | -0.0376
136 | GTCTGACA | -0.00408
137 | TAACATCA | 0.103
138 | ACCCAGGG | -0.213
139 | GAATCCGC | 0.0481
140 | TAGGACGA | -0.119
141 | CCGACCGC | -0.114
142 | CGCAGATC | -0.00778
143 | CTGATACA | -0.0209
144 | CGACTACG | -0.0372
145 | AGCCACAC | -0.127
146 | AAACTCAT | 0.235
147 | CGGCGCCG | 0.443
148 | TAAACTCA | 0.103
149 | CGAGTCAA | 0.0285
150 | AAGCCTAA | 0.0316

Already shown: entries from further up.
Row | Sequence | PBM E-score
110 | AGTCGCCC | -0.265
111 | TGATCCAA | 0.0844
112 | ATTGCGTA | -0.0982
113 | AAGTGGCC | -0.219
114 | AAGTACTA | 0.125
115 | ATAGCTAT | 0.229

The listing continues:

Row | Sequence | PBM E-score
151 | ATGCATGA | 0.0229
152 | CTAGACTC | -0.252
153 | ATACCGTC | 0.0873
154 | AAGTCTCC | -0.101
155 | CATGAGCA | -0.042
156 | CAATTGTG | -0.0298
157 | TGCGTGAA | 0.158
158 | CGAAACAG | -0.0145
159 | AGGTGCAT | -0.0459
160 | CAGCTGTC | 0.0174
161 | GCTACCAC | -0.176
162 | AAGGGGTA | -0.351
163 | AACACCGA | 0.0806
164 | AACTCTCC | -0.0166
165 | AGACATGC | -0.192
166 | ACCTCGCG | -0.155
167 | CTCTTTGA | 0.0431
168 | ATCAATTG | 0.136
169 | GCCACCCA | -0.202
170 | ATGAAGGA | 0.147
171 | CCGTTGCA | -0.0784
172 | ACGTGCAG | -0.239

Reference: the supplement of paper PMC3334620
